Results reported in paper PMC5439121.
No constants are given. Whether binding was seen depends on the method and setting. Binding seen in cells or lysates may run through a third protein. Some binding calls cover weakened binding; strength is not graded here.

Key:
[1] = target: epidermal growth factor receptor (human (endogenous in SGC-7901 and BGC-823)) (UniProt P00533); assay: co-IP; data not shown; SGC-7901 and BGC-823 cells treated with the Src inhibitor PP2, association of CD24 with EGFR examined; the method is not given
[2] = target: epidermal growth factor receptor (human (endogenous in SGC-7901 and BGC-823)) (UniProt P00533); assay: co-IP; proteins of SGC-7901 or BGC-823 cells precipitated with anti-EGFR antibody at 4 °C for 4 h, protein A+G agarose beads 1 h, six washes; Western blot for CD24

binding [1]: binds
binding [2]: binds
B1: CD24 (peptide, UniProt P25063 27-59)
chain: SETTTGTSSNSSQSTSNSGLAPNPTNATTKAAG
